Reference: publication PMC5746398
These are yes or no findings as the source states them, for the method shown. In cells and extracts the contact can be indirect. Some entries that bind do so weakly or less than the wild type.

Amino acid sequences for entries named in this document (tags omitted).
UniProt Q9ULT8: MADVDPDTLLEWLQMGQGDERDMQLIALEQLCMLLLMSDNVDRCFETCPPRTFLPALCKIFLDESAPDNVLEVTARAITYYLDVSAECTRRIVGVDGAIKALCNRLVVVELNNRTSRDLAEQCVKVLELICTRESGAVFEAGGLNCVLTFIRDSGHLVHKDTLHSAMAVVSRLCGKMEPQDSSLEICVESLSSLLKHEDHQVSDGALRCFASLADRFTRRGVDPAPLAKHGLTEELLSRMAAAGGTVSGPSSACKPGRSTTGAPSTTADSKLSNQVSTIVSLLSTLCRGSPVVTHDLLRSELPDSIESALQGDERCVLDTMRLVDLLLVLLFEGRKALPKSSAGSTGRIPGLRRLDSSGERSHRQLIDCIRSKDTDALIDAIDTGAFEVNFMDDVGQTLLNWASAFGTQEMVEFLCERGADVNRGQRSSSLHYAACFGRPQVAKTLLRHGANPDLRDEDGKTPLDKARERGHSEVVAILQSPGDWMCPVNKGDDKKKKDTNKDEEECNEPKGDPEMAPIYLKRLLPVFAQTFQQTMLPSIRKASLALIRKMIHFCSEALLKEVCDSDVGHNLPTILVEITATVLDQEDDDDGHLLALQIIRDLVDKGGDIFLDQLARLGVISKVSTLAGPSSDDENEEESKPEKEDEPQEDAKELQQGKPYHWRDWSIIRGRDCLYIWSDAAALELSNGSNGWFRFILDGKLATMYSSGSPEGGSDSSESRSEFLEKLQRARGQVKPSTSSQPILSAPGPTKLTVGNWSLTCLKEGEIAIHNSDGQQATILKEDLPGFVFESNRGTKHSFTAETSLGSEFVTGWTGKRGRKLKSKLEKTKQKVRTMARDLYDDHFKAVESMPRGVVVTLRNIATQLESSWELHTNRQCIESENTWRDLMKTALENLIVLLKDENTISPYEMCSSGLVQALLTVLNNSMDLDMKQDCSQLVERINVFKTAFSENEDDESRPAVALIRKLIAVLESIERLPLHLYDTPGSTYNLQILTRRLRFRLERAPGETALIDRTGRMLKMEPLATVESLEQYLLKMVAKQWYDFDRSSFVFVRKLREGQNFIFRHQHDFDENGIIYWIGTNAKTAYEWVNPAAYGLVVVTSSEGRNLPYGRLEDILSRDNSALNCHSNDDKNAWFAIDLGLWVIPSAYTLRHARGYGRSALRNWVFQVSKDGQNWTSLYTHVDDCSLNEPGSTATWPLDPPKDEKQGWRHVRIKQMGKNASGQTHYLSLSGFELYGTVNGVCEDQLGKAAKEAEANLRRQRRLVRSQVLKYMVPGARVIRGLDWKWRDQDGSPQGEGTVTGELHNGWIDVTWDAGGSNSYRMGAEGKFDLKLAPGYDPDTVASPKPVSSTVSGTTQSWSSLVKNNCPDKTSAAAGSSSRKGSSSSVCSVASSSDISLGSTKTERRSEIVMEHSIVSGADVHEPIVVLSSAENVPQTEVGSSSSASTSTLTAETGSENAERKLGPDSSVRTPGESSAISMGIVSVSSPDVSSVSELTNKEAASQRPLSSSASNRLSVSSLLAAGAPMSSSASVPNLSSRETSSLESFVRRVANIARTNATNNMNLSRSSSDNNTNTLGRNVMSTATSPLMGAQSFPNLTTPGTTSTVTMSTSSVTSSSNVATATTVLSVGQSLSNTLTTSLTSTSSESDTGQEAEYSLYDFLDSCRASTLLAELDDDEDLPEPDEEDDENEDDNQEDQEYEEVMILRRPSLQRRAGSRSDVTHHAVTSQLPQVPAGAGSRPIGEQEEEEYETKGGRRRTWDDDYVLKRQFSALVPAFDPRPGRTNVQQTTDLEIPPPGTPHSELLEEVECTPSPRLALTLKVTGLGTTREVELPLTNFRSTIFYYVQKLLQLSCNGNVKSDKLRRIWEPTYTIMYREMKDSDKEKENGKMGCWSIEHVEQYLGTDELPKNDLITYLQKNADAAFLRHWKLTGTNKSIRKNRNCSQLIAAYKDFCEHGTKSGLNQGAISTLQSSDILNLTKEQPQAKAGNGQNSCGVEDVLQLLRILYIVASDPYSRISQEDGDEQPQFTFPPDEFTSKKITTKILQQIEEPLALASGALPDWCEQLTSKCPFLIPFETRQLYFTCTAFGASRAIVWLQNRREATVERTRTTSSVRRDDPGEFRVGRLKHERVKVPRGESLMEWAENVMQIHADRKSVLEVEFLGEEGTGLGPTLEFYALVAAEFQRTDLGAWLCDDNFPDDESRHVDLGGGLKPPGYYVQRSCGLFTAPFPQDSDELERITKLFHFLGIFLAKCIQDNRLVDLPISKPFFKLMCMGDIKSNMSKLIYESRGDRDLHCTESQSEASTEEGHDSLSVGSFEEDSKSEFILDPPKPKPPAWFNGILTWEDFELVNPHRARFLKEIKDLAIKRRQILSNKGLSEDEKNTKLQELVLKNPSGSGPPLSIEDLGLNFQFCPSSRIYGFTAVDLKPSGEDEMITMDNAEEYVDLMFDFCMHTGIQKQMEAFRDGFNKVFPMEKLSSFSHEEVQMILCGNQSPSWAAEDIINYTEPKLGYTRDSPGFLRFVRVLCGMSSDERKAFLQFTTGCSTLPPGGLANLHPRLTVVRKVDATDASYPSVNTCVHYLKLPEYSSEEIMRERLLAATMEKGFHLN
UniProt Q9H4L5: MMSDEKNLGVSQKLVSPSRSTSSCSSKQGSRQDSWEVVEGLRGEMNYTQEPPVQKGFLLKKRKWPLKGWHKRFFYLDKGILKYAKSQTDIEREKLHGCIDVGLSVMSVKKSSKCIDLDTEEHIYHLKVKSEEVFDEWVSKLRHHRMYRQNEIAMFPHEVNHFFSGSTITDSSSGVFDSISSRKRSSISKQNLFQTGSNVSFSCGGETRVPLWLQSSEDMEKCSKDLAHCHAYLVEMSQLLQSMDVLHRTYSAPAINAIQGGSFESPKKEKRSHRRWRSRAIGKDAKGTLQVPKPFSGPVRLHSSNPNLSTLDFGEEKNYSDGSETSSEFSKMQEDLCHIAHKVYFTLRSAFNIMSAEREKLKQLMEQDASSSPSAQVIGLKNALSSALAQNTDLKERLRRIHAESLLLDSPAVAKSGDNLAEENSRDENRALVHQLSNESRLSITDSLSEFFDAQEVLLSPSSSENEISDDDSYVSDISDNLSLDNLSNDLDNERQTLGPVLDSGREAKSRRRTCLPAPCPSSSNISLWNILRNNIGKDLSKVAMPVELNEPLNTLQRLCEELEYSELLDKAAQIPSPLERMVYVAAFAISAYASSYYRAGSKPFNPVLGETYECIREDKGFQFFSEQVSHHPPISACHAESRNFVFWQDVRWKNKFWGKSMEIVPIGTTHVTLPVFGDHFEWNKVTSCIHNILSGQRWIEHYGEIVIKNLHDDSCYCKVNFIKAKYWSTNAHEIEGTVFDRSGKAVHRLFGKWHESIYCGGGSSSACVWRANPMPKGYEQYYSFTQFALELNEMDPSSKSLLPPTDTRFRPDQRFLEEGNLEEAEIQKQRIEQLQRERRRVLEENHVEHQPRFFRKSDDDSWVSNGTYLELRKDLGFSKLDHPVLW

T1: Ubiquitin Specific Peptidase 15 (USP15) (human (endogenous in LN-229, LN-428, LN-18)) (UniProt Q9Y4E8)
T1 sequence: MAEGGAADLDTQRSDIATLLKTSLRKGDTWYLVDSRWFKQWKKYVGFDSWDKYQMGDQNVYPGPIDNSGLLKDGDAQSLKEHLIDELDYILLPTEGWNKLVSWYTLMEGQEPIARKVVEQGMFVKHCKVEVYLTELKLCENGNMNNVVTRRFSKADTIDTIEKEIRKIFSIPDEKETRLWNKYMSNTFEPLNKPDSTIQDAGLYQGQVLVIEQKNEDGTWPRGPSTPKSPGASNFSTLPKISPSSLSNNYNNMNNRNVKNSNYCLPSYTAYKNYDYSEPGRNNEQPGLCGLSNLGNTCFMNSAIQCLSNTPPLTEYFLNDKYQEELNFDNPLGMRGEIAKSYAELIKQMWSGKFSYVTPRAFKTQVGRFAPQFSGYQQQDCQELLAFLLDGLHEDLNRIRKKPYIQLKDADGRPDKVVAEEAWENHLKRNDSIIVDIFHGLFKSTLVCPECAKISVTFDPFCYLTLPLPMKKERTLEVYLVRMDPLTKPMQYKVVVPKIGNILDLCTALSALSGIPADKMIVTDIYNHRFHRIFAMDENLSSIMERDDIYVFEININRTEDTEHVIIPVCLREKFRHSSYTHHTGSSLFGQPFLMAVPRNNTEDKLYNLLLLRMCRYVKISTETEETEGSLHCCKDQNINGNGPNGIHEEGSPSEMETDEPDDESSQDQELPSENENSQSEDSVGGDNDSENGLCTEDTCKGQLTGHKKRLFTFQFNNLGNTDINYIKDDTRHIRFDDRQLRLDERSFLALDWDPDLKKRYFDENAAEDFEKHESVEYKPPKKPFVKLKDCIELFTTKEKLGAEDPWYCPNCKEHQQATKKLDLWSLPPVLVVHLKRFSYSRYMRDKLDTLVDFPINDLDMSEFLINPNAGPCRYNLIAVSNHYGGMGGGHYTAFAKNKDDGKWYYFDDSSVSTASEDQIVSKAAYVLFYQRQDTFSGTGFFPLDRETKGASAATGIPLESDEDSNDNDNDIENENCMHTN


Molecular target: T1, Ubiquitin Specific Peptidase 15 (USP15) (human (endogenous in LN-229, LN-428, LN-18))
Test: co-IP; IP of endogenous USP15 from LN-229 (HECTD1 also from LN-428 and LN-18) protein extracts, Western blot with antibodies against the partner; control IP with rabbit IgG

binding | Molecule
binds | HECT Domain Containing E3 Ubiquitin Protein Ligase 1 (HECTD1) (from UniProt Q9ULT8 1-2610)
binds | Oxysterol Binding Protein-Like 3 (OSBPL3) (from UniProt Q9H4L5 1-887)
binds | Kinesin Family Member 15 (KIF15) (protein, UniProt Q9NS87 1-1388) MAPGCKTELRSVTNGQSNQPSNEGDAIKVFVRIRPPAERSGSADGEQNLCLSVLSSTSLRLHSNPEPKTFTFDHVADVDTTQESVFATVAKSIVESCMSGYNGTIFAYGQTGSGKTFTMMGPSESDNFSHNLRGVIPRSFEYLFSLIDREKEKAGAGKSFLCKCSFIEIYNEQIYDLLDSASAGLYLREHIKKGVFVVGAVEQVVTSAAEAYQVLSGGWRNRRVASTSMNRESSRSHAVFTITIESMEKSNEIVNIRTSLLNLVDLAGSERQKDTHAEGMRLKEAGNINRSLSCLGQVITALVDVGNGKQRHVCYRDSKLTFLLRDSLGGNAKTAIIANVHPGSRCFGETLSTLNFAQRAKLIKNKAVVNEDTQGNVSQLQAEVKRLKEQLAELASGQTPPESFLTRDKKKTNYMEYFQEAMLFFKKSEQEKKSLIEKVTQLEDLTLKKEKFIQSNKMIVKFREDQIIRLEKLHKESRGGFLPEEQDRLLSELRNEIQTLREQIEHHPRVAKYAMENHSLREENRRLRLLEPVKRAQEMDAQTIAKLEKAFSEISGMEKSDKNQQGFSPKAQKEPCLFANTEKLKAQLLQIQTELNNSKQEYEEFKELTRKRQLELESELQSLQKANLNLENLLEATKACKRQEVSQLNKIHAETLKIITTPTKAYQLHSRPVPKLSPEMGSFGSLYTQNSSILDNDILNEPVPPEMNEQAFEAISEELRTVQEQMSALQAKLDEEEHKNLKLQQHVDKLEHHSTQMQELFSSERIDWTKQQEELLSQLNVLEKQLQETQTKNDFLKSEVHDLRVVLHSADKELSSVKLEYSSFKTNQEKEFNKLSERHMHVQLQLDNLRLENEKLLESKACLQDSYDNLQEIMKFEIDQLSRNLQNFKKENETLKSDLNNLMELLEAEKERNNKLSLQFEEDKENSSKEILKVLEAVRQEKQKETAKCEQQMAKVQKLEESLLATEKVISSLEKSRDSDKKVVADLMNQIQELRTSVCEKTETIDTLKQELKDINCKYNSALVDREESRVLIKKQEVDILDLKETLRLRILSEDIERDMLCEDLAHATEQLNMLTEASKKHSGLLQSAQEELTKKEALIQELQHKLNQKKEEVEQKKNEYNFKMRQLEHVMDSAAEDPQSPKTPPHFQTHLAKLLETQEQEIEDGRASKTSLEHLVTKLNEDREVKNAEILRMKEQLREMENLRLESQQLIEKNWLLQGQLDDIKRQKENSDQNHPDNQQLKNEQEESIKERLAKSKIVEEMLKMKADLEEVQSALYNKEMECLRMTDEVERTQTLESKAFQEKEQLRSKLEEMYEERERTSQEMEMLRKQVECLAEENGKLVGHQNLHQKIQYVVRLKKENVRLAEETEKLRAENVFLKEKKRSES
